Each structure is given as a SMILES string. The match of structure and compound is tentative.

Chains of the proteins cited; added tags and fusions are not shown. Residues count along the entry.
UniProt P05106, 27-788 limits assumed: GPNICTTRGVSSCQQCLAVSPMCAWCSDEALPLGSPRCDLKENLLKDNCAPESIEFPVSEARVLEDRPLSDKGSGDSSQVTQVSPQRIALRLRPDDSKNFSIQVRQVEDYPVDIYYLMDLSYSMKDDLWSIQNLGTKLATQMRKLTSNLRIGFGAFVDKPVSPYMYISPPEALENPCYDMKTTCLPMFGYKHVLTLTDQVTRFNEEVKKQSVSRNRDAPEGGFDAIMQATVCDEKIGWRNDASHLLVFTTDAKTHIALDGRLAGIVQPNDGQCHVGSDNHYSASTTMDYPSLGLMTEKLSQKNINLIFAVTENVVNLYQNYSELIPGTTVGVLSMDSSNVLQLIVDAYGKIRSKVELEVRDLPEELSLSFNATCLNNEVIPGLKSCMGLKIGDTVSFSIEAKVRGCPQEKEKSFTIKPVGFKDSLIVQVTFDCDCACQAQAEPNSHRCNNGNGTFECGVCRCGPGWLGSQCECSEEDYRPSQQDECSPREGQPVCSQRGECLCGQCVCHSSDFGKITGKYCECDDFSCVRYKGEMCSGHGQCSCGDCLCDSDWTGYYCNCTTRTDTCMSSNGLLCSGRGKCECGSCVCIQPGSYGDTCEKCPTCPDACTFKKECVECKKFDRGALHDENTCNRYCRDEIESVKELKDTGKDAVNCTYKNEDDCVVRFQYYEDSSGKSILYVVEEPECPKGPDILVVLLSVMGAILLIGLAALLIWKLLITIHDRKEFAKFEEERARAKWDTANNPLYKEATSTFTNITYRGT
UniProt P08514, 32-887 limits assumed: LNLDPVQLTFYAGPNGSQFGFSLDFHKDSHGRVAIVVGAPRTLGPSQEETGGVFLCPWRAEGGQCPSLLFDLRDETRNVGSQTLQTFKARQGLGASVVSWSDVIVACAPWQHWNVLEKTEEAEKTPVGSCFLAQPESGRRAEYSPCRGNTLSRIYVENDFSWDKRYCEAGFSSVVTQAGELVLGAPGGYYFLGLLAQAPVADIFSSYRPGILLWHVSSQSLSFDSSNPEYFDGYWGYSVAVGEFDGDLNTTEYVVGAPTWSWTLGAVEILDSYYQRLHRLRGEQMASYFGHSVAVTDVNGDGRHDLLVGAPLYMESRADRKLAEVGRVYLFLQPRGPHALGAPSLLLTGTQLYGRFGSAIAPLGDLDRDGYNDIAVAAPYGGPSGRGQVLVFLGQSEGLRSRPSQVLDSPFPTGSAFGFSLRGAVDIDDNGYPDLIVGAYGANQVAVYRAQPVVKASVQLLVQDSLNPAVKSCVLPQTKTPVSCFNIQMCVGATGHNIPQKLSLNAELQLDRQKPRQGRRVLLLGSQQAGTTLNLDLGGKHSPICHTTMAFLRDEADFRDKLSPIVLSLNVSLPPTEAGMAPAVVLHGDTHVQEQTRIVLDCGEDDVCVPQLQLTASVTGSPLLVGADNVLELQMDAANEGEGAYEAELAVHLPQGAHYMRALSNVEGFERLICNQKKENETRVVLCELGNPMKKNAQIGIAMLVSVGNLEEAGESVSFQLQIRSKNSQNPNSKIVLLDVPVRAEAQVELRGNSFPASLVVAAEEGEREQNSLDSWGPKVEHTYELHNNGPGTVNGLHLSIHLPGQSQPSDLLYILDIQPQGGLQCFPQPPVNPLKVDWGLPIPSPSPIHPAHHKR

The source of these data is patent US6448269B1 (Eli Lilly and Company, priority 1993, dated 2002).

The target in one experiment is GPIIb-IIIa (Homo sapiens, UniProt P05106+P08514). The experiment can be described thus: ELISA IIb-IIIa assay (fibrinogen binding to immobilized GPIIb-IIIa). The note with it: read-out: ELISA IIb/IIIa IC50 uM; purified platelet GPIIb-IIIa receptor coated on ELISA plates; biotin-labeled fibrinogen 10 nM, 3 hours at 25° C. Background: An ELISA detects its analyte on a solid surface through an enzyme-linked reagent.

The test system of experiment [1] is human platelet-rich plasma. Put plainly: Platelet aggregation assay (Aggregation-Human PRP/ADP). The note with it: read-out: Agg: Human PRP/ADP IC50uM; human platelet-rich plasma incubated with compound 1 minute at 37° C.; ADP-induced aggregation.

Take `CC1(CCC(=O)O)CCc2cc(NC(=O)c3ccc(C(N)=O)cc3)ccc2O1` (racemic): the IC50 on GPIIb-IIIa worked out at 1.16 µM; in experiment [1], 40 µM.
